# Some of the results follow.
# Experiments:
# Assay in all cases: glycan array binding signal (z-score within array); higher = stronger binding
# Conditions in all cases: glycan notation: IUPAC condensed, linker removed
# [1] = molecular target: GlcNAc(b1-3)Gal(b1-3)GalNAc
# How it was run: (§1)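 Arrays were curated from the Consortium for Functional Glycomics database, 3228 in total, and kept only where the protein sequence was available. Binding is expressed as a within-array Z-score. This score was averaged across arrays of the same protein sequence at different concentrations or buffers and across linkers, and negative values can be read as non-binding.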
# [2] = molecular target: GlcNAc(b1-3)Gal(b1-4)Glc
# How it was run: as §1
# [3] = molecular target: GlcNAc(b1-3)Gal(b1-4)GlcNAc
# How it was run: as §1
# [4] = molecular target: GlcNAc(b1-3)Gal(b1-4)GlcNAc(b1-2)Man(a1-3)[GlcNAc(b1-3)Gal(b1-4)GlcNAc(b1-2)Man(a1-6)]Man(b1-4)GlcNAc(b1-4)GlcNAc
# How it was run: as §1
# [5] = molecular target: GlcNAc(b1-3)Gal(b1-4)GlcNAc(b1-2)Man(a1-3)[GlcNAc(b1-3)Gal(b1-4)GlcNAc(b1-2)Man(a1-6)]Man(b1-4)GlcNAc(b1-4)[Fuc(a1-6)]GlcNAc
# How it was run: as §1
# [6] = molecular target: GlcNAc(b1-3)Gal(b1-4)GlcNAc(b1-2)[GlcNAc(b1-3)Gal(b1-4)GlcNAc(b1-6)]Man(a1-6)[GlcNAc(b1-3)Gal(b1-4)GlcNAc(b1-2)Man(a1-3)]Man(b1-4)GlcNAc(b1-4)GlcNAc
# How it was run: as §1
# [7] = molecular target: GlcNAc(b1-3)Gal(b1-4)GlcNAc(b1-3)Gal(b1-4)GlcNAc
# How it was run: as §1
# [8] = molecular target: GlcNAc(b1-3)Gal(b1-4)GlcNAc(b1-3)Gal(b1-4)GlcNAc(b1-2)Man(a1-3)[GlcNAc(b1-3)Gal(b1-4)GlcNAc(b1-3)Gal(b1-4)GlcNAc(b1-2)Man(a1-6)]Man(b1-4)GlcNAc(b1-4)GlcNAc
# How it was run: as §1
# [9] = molecular target: GlcNAc(b1-3)Gal(b1-4)GlcNAc(b1-3)Gal(b1-4)GlcNAc(b1-2)Man(a1-3)[GlcNAc(b1-3)Gal(b1-4)GlcNAc(b1-3)Gal(b1-4)GlcNAc(b1-2)Man(a1-6)]Man(b1-4)GlcNAc(b1-4)[Fuc(a1-6)]GlcNAc
# How it was run: as §1
# [10] = molecular target: GlcNAc(b1-3)Gal(b1-4)GlcNAc(b1-3)Gal(b1-4)GlcNAc(b1-2)[GlcNAc(b1-3)Gal(b1-4)GlcNAc(b1-3)Gal(b1-4)GlcNAc(b1-6)]Man(a1-6)[GlcNAc(b1-3)Gal(b1-4)GlcNAc(b1-3)Gal(b1-4)GlcNAc(b1-2)Man(a1-3)]Man(b1-4)GlcNAc(b1-4)[Fuc(a1-6)]GlcNAc
# How it was run: as §1
# [11] = molecular target: GlcNAc(b1-3)Gal(b1-4)GlcNAc(b1-3)Gal(b1-4)GlcNAc(b1-3)Gal(b1-4)GlcNAc(b1-2)Man(a1-3)[GlcNAc(b1-3)Gal(b1-4)GlcNAc(b1-3)Gal(b1-4)GlcNAc(b1-3)Gal(b1-4)GlcNAc(b1-2)Man(a1-6)]Man(b1-4)GlcNAc(b1-4)GlcNAc
# How it was run: as §1
# [12] = molecular target: GlcNAc(b1-3)Gal(b1-4)GlcNAc(b1-3)Gal(b1-4)GlcNAc(b1-3)Gal(b1-4)GlcNAc(b1-2)Man(a1-3)[GlcNAc(b1-3)Gal(b1-4)GlcNAc(b1-3)Gal(b1-4)GlcNAc(b1-3)Gal(b1-4)GlcNAc(b1-2)Man(a1-6)]Man(b1-4)GlcNAc(b1-4)[Fuc(a1-6)]GlcNAc
# How it was run: as §1
# [13] = molecular target: GlcNAc(b1-3)Gal(b1-4)GlcNAc(b1-3)Gal(b1-4)GlcNAc(b1-3)Gal(b1-4)GlcNAc(b1-2)[GlcNAc(b1-3)Gal(b1-4)GlcNAc(b1-3)Gal(b1-4)GlcNAc(b1-3)Gal(b1-4)GlcNAc(b1-6)]Man(a1-6)[GlcNAc(b1-3)Gal(b1-4)GlcNAc(b1-3)Gal(b1-4)GlcNAc(b1-3)Gal(b1-4)GlcNAc(b1-2)Man(a1-3)]Man(b1-4)GlcNAc(b1-4)[Fuc(a1-6)]GlcNAc
# How it was run: as §1
# [14] = molecular target: GlcNAc(b1-3)Gal(b1-4)GlcNAc(b1-3)Gal(b1-4)GlcNAc(b1-3)Gal(b1-4)GlcNAc(b1-3)Gal(b1-4)GlcNAc(b1-2)Man(a1-3)[GlcNAc(b1-3)Gal(b1-4)GlcNAc(b1-3)Gal(b1-4)GlcNAc(b1-3)Gal(b1-4)GlcNAc(b1-3)Gal(b1-4)GlcNAc(b1-2)Man(a1-6)]Man(b1-4)GlcNAc(b1-4)GlcNAc
# How it was run: as §1
# [15] = molecular target: GlcNAc(b1-3)Gal(b1-4)GlcNAc(b1-3)Gal(b1-4)GlcNAc(b1-3)Gal(b1-4)GlcNAc(b1-3)Gal(b1-4)GlcNAc(b1-2)Man(a1-3)[GlcNAc(b1-3)Gal(b1-4)GlcNAc(b1-3)Gal(b1-4)GlcNAc(b1-3)Gal(b1-4)GlcNAc(b1-3)Gal(b1-4)GlcNAc(b1-2)Man(a1-6)]Man(b1-4)GlcNAc(b1-4)[Fuc(a1-6)]GlcNAc
# How it was run: as §1
# [16] = molecular target: GlcNAc(b1-3)Gal(b1-4)GlcNAc(b1-3)Gal(b1-4)GlcNAc(b1-3)Gal(b1-4)GlcNAc(b1-3)Gal(b1-4)GlcNAc(b1-2)[GlcNAc(b1-3)Gal(b1-4)GlcNAc(b1-3)Gal(b1-4)GlcNAc(b1-3)Gal(b1-4)GlcNAc(b1-3)Gal(b1-4)GlcNAc(b1-6)]Man(a1-6)[GlcNAc(b1-3)Gal(b1-4)GlcNAc(b1-3)Gal(b1-4)GlcNAc(b1-3)Gal(b1-4)GlcNAc(b1-3)Gal(b1-4)GlcNAc(b1-2)Man(a1-3)]Man(b1-4)GlcNAc(b1-4)[Fuc(a1-6)]GlcNAc
# How it was run: as §1
# [17] = molecular target: GlcNAc(b1-3)Gal(b1-4)GlcNAc(b1-3)Gal(b1-4)GlcNAc(b1-3)GalNAc
# How it was run: as §1
# [18] = molecular target: GlcNAc(b1-3)Gal(b1-4)GlcNAc(b1-3)GalNAc
# How it was run: as §1
# [19] = molecular target: GlcNAc(b1-3)Gal(b1-4)GlcNAc(b1-3)[GlcNAc(b1-3)Gal(b1-4)GlcNAc(b1-3)]GalNAc
# How it was run: as §1
# [20] = molecular target: GlcNAc(b1-3)Gal(b1-4)GlcNAc(b1-6)[Gal(b1-3)]GalNAc
# How it was run: as §1
# [21] = molecular target: GlcNAc(b1-3)Gal(b1-4)GlcNAc(b1-6)[GlcNAc(b1-3)Gal(b1-3)]GalNAc
# How it was run: as §1
# [22] = molecular target: GlcNAc(b1-3)Gal(b1-4)GlcNAc(b1-6)[GlcNAc(b1-3)]Gal(b1-4)GlcNAc
# How it was run: as §1
# [23] = molecular target: GlcNAc(b1-3)GalNAc
# How it was run: as §1
# [24] = molecular target: GlcNAc(b1-3)Man
# How it was run: as §1
# [25] = molecular target: GlcNAc(b1-3)[GlcNAc(b1-4)][GlcNAc(b1-6)]GlcNAc
# How it was run: as §1
# [26] = molecular target: GlcNAc(b1-3)[GlcNAc(b1-6)]Gal(b1-4)GlcNAc
# How it was run: as §1
# [27] = molecular target: GlcNAc(b1-3)[GlcNAc(b1-6)]GalNAc
# How it was run: as §1
# [28] = molecular target: GlcNAc(b1-4)Gal(b1-4)GlcNAc
# How it was run: as §1
# [29] = molecular target: GlcNAc(b1-4)GlcNAc
# How it was run: as §1
# [30] = molecular target: GlcNAc(b1-4)GlcNAc(b1-4)GlcNAc
# How it was run: as §1
# [31] = molecular target: GlcNAc(b1-4)GlcNAc(b1-4)GlcNAc(b1-4)GlcNAc(b1-4)GlcNAc
# How it was run: as §1
# [32] = molecular target: GlcNAc(b1-4)GlcNAc(b1-4)GlcNAc(b1-4)GlcNAc(b1-4)GlcNAc(b1-4)GlcNAc
# How it was run: as §1
# [33] = molecular target: GlcNAc(b1-4)[GlcNAc(b1-6)]GalNAc
# How it was run: as §1
# [34] = molecular target: GlcNAc(b1-6)Gal(b1-4)GlcNAc
# How it was run: as §1
# [35] = molecular target: GlcNAc(b1-6)GalNAc
# How it was run: as §1
# [36] = molecular target: GlcNAc6S(b1-3)Gal(b1-4)GlcNAc
# How it was run: as §1
# [37] = molecular target: Kdn(a2-3)Gal(b1-3)GalNAc
# How it was run: as §1
# [38] = molecular target: Kdn(a2-3)Gal(b1-3)GlcNAc
# How it was run: as §1
# [39] = molecular target: Kdn(a2-3)Gal(b1-4)Glc
# How it was run: as §1
# [40] = molecular target: Kdn(a2-3)Gal(b1-4)GlcNAc
# How it was run: as §1
# [41] = molecular target: Kdn(a2-3)Gal(b1-4)[Fuc(a1-3)]GlcNAc
# How it was run: as §1
# [42] = molecular target: Kdn(a2-6)Gal(b1-4)GlcNAc
# How it was run: as §1
# [43] = molecular target: Man(a1-2)Man(a1-2)Man(a1-3)Man
# How it was run: as §1
# [44] = molecular target: Man(a1-2)Man(a1-2)Man(a1-6)[Man(a1-3)]Man
# How it was run: as §1
# [45] = molecular target: Man(a1-2)Man(a1-3)Man
# How it was run: as §1
binder,measurement,setting,value
"AFL6 (Aspergillus fumigatus), Q4WKJ1 (protein) MSFHLTAEDIRIEDGHRLVARLRNADGDLQDASIDLNTCLGNDNGHFQWDGVDFSHSAQDVHFAIEGGGQVPVLRAQLANQDGEFQDADVNLSERIENINGEFVFH",glycan array binding signal (z-score),[1],-0.517
same,glycan array binding signal (z-score),[2],0.151
same,glycan array binding signal (z-score),[3],-0.299
same,glycan array binding signal (z-score),[4],0.395
same,glycan array binding signal (z-score),[5],1.67
same,glycan array binding signal (z-score),[6],0.915
same,glycan array binding signal (z-score),[7],-0.698
same,glycan array binding signal (z-score),[8],1.4
same,glycan array binding signal (z-score),[9],2.48
same,glycan array binding signal (z-score),[10],0.798
same,glycan array binding signal (z-score),[11],0.628
same,glycan array binding signal (z-score),[12],2.39
same,glycan array binding signal (z-score),[13],-0.301
same,glycan array binding signal (z-score),[14],1.29
same,glycan array binding signal (z-score),[15],0.616
same,glycan array binding signal (z-score),[16],0.786
same,glycan array binding signal (z-score),[17],-0.176
same,glycan array binding signal (z-score),[18],-0.333
same,glycan array binding signal (z-score),[19],0.588
same,glycan array binding signal (z-score),[20],-0.617
same,glycan array binding signal (z-score),[21],-0.339
same,glycan array binding signal (z-score),[22],-0.637
same,glycan array binding signal (z-score),[23],-0.252
same,glycan array binding signal (z-score),[24],-0.615
same,glycan array binding signal (z-score),[25],-0.371
same,glycan array binding signal (z-score),[26],-0.421
same,glycan array binding signal (z-score),[27],-0.337
same,glycan array binding signal (z-score),[28],-0.294
same,glycan array binding signal (z-score),[29],-0.177
same,glycan array binding signal (z-score),[30],-0.154
same,glycan array binding signal (z-score),[31],-0.087
same,glycan array binding signal (z-score),[32],0.533
same,glycan array binding signal (z-score),[33],-0.154
same,glycan array binding signal (z-score),[34],-0.225
same,glycan array binding signal (z-score),[35],-0.476
same,glycan array binding signal (z-score),[36],-0.122
same,glycan array binding signal (z-score),[37],0.106
same,glycan array binding signal (z-score),[38],0.231
same,glycan array binding signal (z-score),[39],0.305
same,glycan array binding signal (z-score),[40],0.251
same,glycan array binding signal (z-score),[41],0.361
same,glycan array binding signal (z-score),[42],-0.343
same,glycan array binding signal (z-score),[43],-0.027
same,glycan array binding signal (z-score),[44],-0.16
same,glycan array binding signal (z-score),[45],-0.536

# At a glance, part of the list above.
binder,measurement,setting,value
"AFL6 (Aspergillus fumigatus), Q4WKJ1 (protein) MSFHLTAEDIRIEDGHRLVARLRNADGDLQDASIDLNTCLGNDNGHFQWDGVDFSHSAQDVHFAIEGGGQVPVLRAQLANQDGEFQDADVNLSERIENINGEFVFH",glycan array binding signal (z-score),[29],-0.177
same,glycan array binding signal (z-score),[30],-0.154
same,glycan array binding signal (z-score),[31],-0.087
same,glycan array binding signal (z-score),[32],0.533
same,glycan array binding signal (z-score),[33],-0.154
same,glycan array binding signal (z-score),[34],-0.225
same,glycan array binding signal (z-score),[35],-0.476
same,glycan array binding signal (z-score),[36],-0.122
same,glycan array binding signal (z-score),[37],0.106
same,glycan array binding signal (z-score),[38],0.231
same,glycan array binding signal (z-score),[39],0.305
same,glycan array binding signal (z-score),[40],0.251

# — the supplement of paper PMC8728848
